At least one structure is not confirmed: it was looked up by name or label, or the drawing left a doubt.
Legend:
Dkk-1 = assay: RT-PCR of endogenous Wnt target Dkk-1 in HEK293 cells; format: cell-based, human; details: HEK293, Wnt3a conditioned medium, 1 μM, 24 hr
MDA-MB-231 = assay: Caspase-3/7 apoptosis assay, MDA-MB-231; format: cell-based, human; details: MDA-MB-231, 1 μM, 24 hr
HCT116 cells = assay: Growth curve assay (CellTiter-Glo), HCT116; format: cell-based, human; details: 72 hr
Axin = assay: Radiolabeled Axin degradation in Xenopus egg extract; format: biochemical, Xenopus laevis
β-catenin [1] = assay: β-catenin Western blot in Wnt3a-stimulated HEK 293 cells; format: cell-based, human; details: HEK 293, Wnt3a-conditioned medium, 1 μM, 24 hr
SW480 = assay: Caspase-3/7 apoptosis assay, SW480; format: cell-based, human; details: SW480, 1 μM, 24 hr
SW620 = assay: Caspase-3/7 apoptosis assay, SW620; format: cell-based, human; details: SW620, 1 μM, 24 hr
β-catenin [2] = assay: Cytoplasmic β-catenin levels in HCT116 cells; format: cell-based, human; details: HCT116, various concentrations, 24 hr
Axin2 = assay: RT-PCR of endogenous Wnt target Axin2 in HEK293 cells; format: cell-based, human; details: HEK293, Wnt3a conditioned medium, 1 μM, 24 hr
HCT116 = assay: Caspase-3/7 apoptosis assay, HCT116; format: cell-based, human; details: HCT116, 1 μM, 24 hr

`Cc1cc(/C=C/c2ccc3cc(N(C)C)ccc3[n+]2C)c(C)n1-c1ccccc1` [pyrvinium, pyrvinium pamoate] was tested, and the “Dkk-1 mRNA levels” value (Dkk-1) was “potently decreases mRNA levels”, the “activity of caspase-3 and -7” value (MDA-MB-231) was “elevated” and the “growth of HCT116 cells” value (HCT116 cells) was “equally a potent as in the other cell lines”. The “LRP6-mediated degradation of Axin” value (Axin; Xenopus extract, 3 hr, 10, 100, or 1000 mM Pyrvinium) was “degradation is blocked”, the “degradation of full-length, radiolabeled Axin” value (Axin; Xenopus extracts, FIG. 1) was “blocks Axin degradation in a dose-dependent manner” and the “levels of cytosolic β-catenin” value (β-catenin [1]) was “decreased levels of cytosolic β-catenin”. For the same compound, the “activity of caspase-3 and -7” value (SW480) was “elevated”, the “activity of caspase-3 and -7” value (SW620) was “elevated” and the “cytoplasmic levels of β-catenin” value (β-catenin [2]) was “decreased levels of β-catenin but not completely”. For the same compound, the “Axin2 mRNA levels” value (Axin2) was “potently decreases mRNA levels” and the “activity of caspase-3 and -7” value (HCT116) was “elevated”.

From patent US20090099062A1 (priority 2007, published 2009)
